Earlier results as cited in patent publication US9744189B1, “Compositions of lithium salts and methods of use” (University of South Florida, priority 2013, dated 2017).
At least one compound was matched to its structure with a doubt left.

Conditions: cited from earlier work

Compound	toxicity
[Br-].[Li+] [lithium bromide]	toxic
[Cl-].[Li+] [lithium chloride]	toxic
